Experimental data reported in article PMC10875230.
No constants are given. Whether binding was seen depends on the method and setting. In cells and extracts the contact can be indirect. Some results given as binding are weak or reduced against the parent protein; the word gives no strength.

Chains of the proteins cited; added tags and fusions are not shown. Lines headed by an entry give the natural chain unless they say otherwise; changes in a name come on top.
UniProt Q7TQK4: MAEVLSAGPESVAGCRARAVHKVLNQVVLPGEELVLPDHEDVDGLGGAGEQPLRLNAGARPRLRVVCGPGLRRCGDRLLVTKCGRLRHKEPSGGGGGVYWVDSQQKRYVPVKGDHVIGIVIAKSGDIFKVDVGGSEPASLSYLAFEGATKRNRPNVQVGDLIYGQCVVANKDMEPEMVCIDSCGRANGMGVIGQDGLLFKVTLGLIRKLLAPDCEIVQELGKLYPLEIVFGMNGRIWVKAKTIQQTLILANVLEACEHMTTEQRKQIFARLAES
UniProt Q9JHI7: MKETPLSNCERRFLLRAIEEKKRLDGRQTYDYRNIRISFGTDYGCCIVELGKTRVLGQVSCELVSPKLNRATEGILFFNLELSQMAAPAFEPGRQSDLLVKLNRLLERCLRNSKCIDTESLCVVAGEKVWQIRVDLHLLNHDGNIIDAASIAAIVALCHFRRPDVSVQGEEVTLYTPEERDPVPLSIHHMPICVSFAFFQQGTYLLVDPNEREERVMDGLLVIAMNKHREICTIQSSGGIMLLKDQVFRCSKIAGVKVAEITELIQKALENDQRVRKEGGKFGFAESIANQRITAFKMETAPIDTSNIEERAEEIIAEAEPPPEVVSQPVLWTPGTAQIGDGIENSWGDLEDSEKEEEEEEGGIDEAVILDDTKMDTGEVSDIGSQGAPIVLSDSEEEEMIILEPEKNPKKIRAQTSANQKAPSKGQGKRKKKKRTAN

What was measured:
myc-EXOSC3 = myc-EXOSC3 (UniProt Q7TQK4); test: co-IP; myc-EXOSC3 precipitated with anti-myc magnetic beads from lysate of transfected N2A cells (20 mM Hepes pH 7.2, 100 mM NaCl, 0.2% Triton X-100; 1 h, room temperature); immunoblot
[1] = target: EXOSC3 (endogenous) (mouse (endogenous in N2A)) (UniProt Q7TQK4); test: co-IP; endogenous EXOSC3 precipitated with rabbit polyclonal EXOSC3 antibody on Protein G beads from the cytoplasmic fraction of N2A cells (50 mM Tris-HCl pH 7.4, 100 mM NaCl, 0.5% IGEPAL CA-630; 4 °C overnight); immunoblot
[2] = target: EXOSC3 (endogenous) (mouse (endogenous in N2A)) (UniProt Q7TQK4); test: co-IP; endogenous EXOSC3 precipitated with rabbit polyclonal EXOSC3 antibody on Protein G beads from the nuclear fraction of N2A cells (50 mM Tris-HCl pH 7.4, 100 mM NaCl, 0.5% IGEPAL CA-630; 4 °C overnight); immunoblot; also with RNase A, other RNases or DNase I added to the lysate, and after treatment of the cells with camptothecin or bleomycin

Measured: binding

EXOSC9 (from UniProt Q9JHI7 1-438)
binds: all assays above
